Results are given in words; binding and its absence hold for the method and conditions named. For some assays here: In cells and extracts the contact can be indirect. Some binding calls cover weakened binding; strength is not graded here. Each block holds one substance with its values, some of them ahead of it.
Experiments:
[1] = target: β-catenin (human (endogenous in SUM159, MCF10AT, MCF7)) (UniProt P35222); experiment: co-IP; pooled FPLC fractions 14, 15 and 16 of MCF10AT lysate; IP with anti-Merlin or anti-β-catenin, immunoblot
[2] = target: β-catenin (human (endogenous in SUM159, MCF10AT, MCF7)) (UniProt P35222); experiment: co-IP; lysate (1 mg) of SUM159 cells transfected with Merlin; IP with anti-Merlin or anti-β-catenin (reverse), protein A/G agarose, 4°C, immunoblot
pBIND-β-catenin = pBIND-β-catenin (UniProt P35222); experiment: two-hybrid; mammalian two-hybrid luciferase assay in SUM159 cells: pACT-Merlin, pBIND-β-catenin and pGL4.31 co-transfected; luciferase normalised to total protein
[3] = target: Merlin (endogenous, MCF10AT) (human (endogenous in MCF10AT)) (UniProt P35240); experiment: co-IP; pooled FPLC fractions 14, 15 and 16 of MCF10AT lysate; IP with anti-Merlin or anti-β-catenin, immunoblot
Merlin = Merlin (UniProt P35240); experiment: co-IP; lysate (1 mg) of SUM159 cells transfected with Merlin; IP with anti-Merlin or anti-β-catenin (reverse), protein A/G agarose, 4°C, immunoblot

Protein sequences, listed by entry. Tags and fused reporters are not part of them. Lines headed by an entry give the natural chain unless they say otherwise; changes in a name come on top. Residues count along the entry.
UniProt P35222: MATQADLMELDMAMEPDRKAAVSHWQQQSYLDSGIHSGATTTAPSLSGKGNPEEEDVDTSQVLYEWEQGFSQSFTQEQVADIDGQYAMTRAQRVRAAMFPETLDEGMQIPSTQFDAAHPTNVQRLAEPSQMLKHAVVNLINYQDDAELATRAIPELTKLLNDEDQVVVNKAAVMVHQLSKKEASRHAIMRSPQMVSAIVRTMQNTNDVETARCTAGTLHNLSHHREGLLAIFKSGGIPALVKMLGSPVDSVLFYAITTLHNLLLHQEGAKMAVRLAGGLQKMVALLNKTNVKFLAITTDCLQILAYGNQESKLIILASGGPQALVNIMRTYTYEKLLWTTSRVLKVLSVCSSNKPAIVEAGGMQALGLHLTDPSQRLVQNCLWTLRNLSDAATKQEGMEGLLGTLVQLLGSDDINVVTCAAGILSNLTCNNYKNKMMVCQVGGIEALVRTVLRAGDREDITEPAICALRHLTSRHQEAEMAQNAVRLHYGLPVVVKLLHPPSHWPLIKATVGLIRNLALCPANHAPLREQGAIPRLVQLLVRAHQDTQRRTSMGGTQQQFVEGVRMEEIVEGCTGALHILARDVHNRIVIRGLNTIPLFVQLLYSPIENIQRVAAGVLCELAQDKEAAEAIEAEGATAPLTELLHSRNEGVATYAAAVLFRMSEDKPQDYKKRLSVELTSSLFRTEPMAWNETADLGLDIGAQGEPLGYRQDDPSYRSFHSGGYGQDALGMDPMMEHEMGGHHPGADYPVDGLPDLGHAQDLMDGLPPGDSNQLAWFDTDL
pBIND-β-catenin: residues 2-781 of P35222
UniProt P35240: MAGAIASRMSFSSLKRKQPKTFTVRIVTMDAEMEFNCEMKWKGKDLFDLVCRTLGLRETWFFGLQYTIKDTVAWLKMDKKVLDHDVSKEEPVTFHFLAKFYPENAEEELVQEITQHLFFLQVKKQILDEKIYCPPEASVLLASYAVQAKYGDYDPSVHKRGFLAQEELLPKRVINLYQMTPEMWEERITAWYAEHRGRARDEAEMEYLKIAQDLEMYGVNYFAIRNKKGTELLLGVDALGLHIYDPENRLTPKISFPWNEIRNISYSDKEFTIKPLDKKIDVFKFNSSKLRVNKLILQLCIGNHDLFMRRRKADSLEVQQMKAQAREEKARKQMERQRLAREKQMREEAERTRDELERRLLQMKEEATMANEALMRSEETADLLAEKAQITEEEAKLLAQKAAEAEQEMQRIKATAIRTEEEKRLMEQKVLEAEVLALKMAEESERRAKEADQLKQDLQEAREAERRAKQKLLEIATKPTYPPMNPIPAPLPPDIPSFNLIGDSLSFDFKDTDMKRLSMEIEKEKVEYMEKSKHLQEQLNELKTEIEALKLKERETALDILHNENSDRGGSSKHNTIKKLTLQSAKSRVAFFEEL

binding [1]: binds
Substance: Merlin (endogenous, MCF10AT) (from UniProt P35240 1-595)

binding [2]: binds
Substance: Merlin (from UniProt P35240 1-595)

binding (pBIND-β-catenin): binds
Substance: pACT-Merlin (from UniProt P35240 2-595)

binding [3]: binds
binding (Merlin): binds
Substance: β-catenin (from UniProt P35222 1-781)
